Some of the results follow.

The target of this assay is T1, OsSMF1 (Oryza sativa, UniProt Q6ZLB0 1-436).
T1 sequence: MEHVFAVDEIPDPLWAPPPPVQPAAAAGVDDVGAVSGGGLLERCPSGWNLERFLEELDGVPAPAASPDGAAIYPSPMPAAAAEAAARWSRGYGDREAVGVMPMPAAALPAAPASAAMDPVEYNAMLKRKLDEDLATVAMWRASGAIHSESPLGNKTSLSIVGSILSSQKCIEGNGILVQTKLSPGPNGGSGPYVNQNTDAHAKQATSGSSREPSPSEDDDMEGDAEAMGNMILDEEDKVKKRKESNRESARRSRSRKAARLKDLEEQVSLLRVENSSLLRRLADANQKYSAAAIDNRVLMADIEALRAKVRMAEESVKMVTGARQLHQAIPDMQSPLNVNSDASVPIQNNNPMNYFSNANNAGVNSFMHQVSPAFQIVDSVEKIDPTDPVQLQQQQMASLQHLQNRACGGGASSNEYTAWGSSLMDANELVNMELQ
Nature of the assay: protein-binding microarray (RPBM); PBS, 2% BSA, 51.3 ng/ul salmon testes DNA, 50 uM zinc acetate, 200 nM TF, 25 C, 1 h; high values mean tight binding. To be noted: protein: recombinant; tags: N-terminal polyhistidine and DsRed monomer fusion (pET32a); chain copies: 2; label: CyDye5-dUTP incorporated in the synthesized complementary strand; 3' TTTTT single-stranded linker to array surface; dsDNA, one strand shown. The gist of the method: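 In PBS with 2% BSA, salmon testes DNA and 50 µM zinc acetate, 200 nM protein was incubated on a custom Agilent array at 25 °C for 1 h and then washed off. The array had been made double-stranded by primer extension with Cy5-dUTP and blocked with 2% BSA. The proteins were transcription factors fused N-terminally to polyhistidine and DsRed, expressed in E. coli BL21-CodonPlus and purified on Ni–NTA. The binding signal is per-feature fluorescence intensity (arbitrary units) from an Axon 4000B scanner.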
Regarding “AGATCGGCGGAGGCGGGCGTGAGCGGTGGCGGTGAGCGAGCGGAGTCACCTAGTGCAG”, the binding signal is 3260 fluorescence intensity (a.u.).

As for “TGTGGACAAATCATTCGGGGTGACATTTGTGTGTTCTTGTCGGAGTCACCTAGTGCAG”, the binding signal was 3160 fluorescence intensity (a.u.).

As for “CAACGAGTGTATTGTTGTATGTAAGGCTGATGTTGTCAAGCGGAGTCACCTAGTGCAG”, the binding signal is 3810 fluorescence intensity (a.u.).

For “ACTATGCTTGTGTTTAGTGCCACGTTAAAATTGGAAGTTTCGGAGTCACCTAGTGCAG”, the binding signal was 4620 fluorescence intensity (a.u.).

On to “AAAATCTTGCAAGTGCACACATACAAACACTTGTAGTTTGCGGAGTCACCTAGTGCAG”, for which the binding signal was 3140 fluorescence intensity (a.u.).

As to “GTAATACAGACACGTGGTATTGATGTACGTAGCACATGGTCGGAGTCACCTAGTGCAG”, the binding signal was 7180 fluorescence intensity (a.u.).

Consider “GACACTTTCACCATGGAAGATTGCTGCAGTATGACATGATCGGAGTCACCTAGTGCAG”, for which the binding signal is 3240 fluorescence intensity (a.u.).

Turning to “CATTAAAGTTCCACGCGCCCTTGACATGTAAAGTGCATTTCGGAGTCACCTAGTGCAG”, the binding signal is 14900 fluorescence intensity (a.u.).

On to “CAAAGCAGCAAAGACAATTTCATGGTCGTTCTCTTATCCCCGGAGTCACCTAGTGCAG”, for which the binding signal is 3410 fluorescence intensity (a.u.).

In the case of “CCACGGGCTACAAAGCACGCGCGTCACTCGCTCTCGCGGCCGGAGTCACCTAGTGCAG”, the binding signal is 4390 fluorescence intensity (a.u.).

Turning to “CCACCCGCTCGCCCGTCCGTTCGATTCGACGACACCTTCACGGAGTCACCTAGTGCAG”, the binding signal was 3860 fluorescence intensity (a.u.).

For “GCCGCCCGCTGGAGGTGCAATAGAGGGCGGAGCAGTAAGTCGGAGTCACCTAGTGCAG”, the binding signal is 4610 fluorescence intensity (a.u.).

As to “GATTGGACGATGACCTCGTCATTCTTCCGGGGTGTACATTCGGAGTCACCTAGTGCAG”, the binding signal was 4140 fluorescence intensity (a.u.).

Turning to “TAGCCTGTGTCATCAGTTTTCTGAACATGTGTGTCATCAGCGGAGTCACCTAGTGCAG”, the binding signal is 5100 fluorescence intensity (a.u.).

In the case of “CCAGGAGGGTGAGCTTGATGCAGGGGCGGGTGCGGGCGAGCGGAGTCACCTAGTGCAG”, the binding signal was 3310 fluorescence intensity (a.u.).

As to “GCCACCATCTCATCGGATAGAATGTGGGGTACACGTGCCGCGGAGTCACCTAGTGCAG”, the binding signal was 5570 fluorescence intensity (a.u.).

For “TTGATGCAATGGTTGCATGTGTCATATTTGTGCAATACCTCGGAGTCACCTAGTGCAG”, the binding signal was 5220 fluorescence intensity (a.u.).

Turning to “GGTTACGTGCAGATCCTGACGCGATCTACCTAGCATTCTCCGGAGTCACCTAGTGCAG”, the binding signal is 5230 fluorescence intensity (a.u.).

Take “ATTCTTCATTCTCATGTGATAATATCTAATTTTGACTGTACGGAGTCACCTAGTGCAG”: the binding signal is 3190 fluorescence intensity (a.u.).

Turning to “CTCAGAGCCCCGGGAAAATCTGGGCCATCCACGTGTCCTCCGGAGTCACCTAGTGCAG”, the binding signal was 11400 fluorescence intensity (a.u.).

Regarding “ACGAGAACCTATGCACTAGACACTATCAAGTTTTGCATTGCGGAGTCACCTAGTGCAG”, the binding signal is 3570 fluorescence intensity (a.u.).

As for “GCCACCCATGTATCGTCTCTTCTTTATGTTTGTTTTGTTGCGGAGTCACCTAGTGCAG”, the binding signal was 3160 fluorescence intensity (a.u.).

“GGCGGAGAAGCACGTGGAATATATTGGTGGGCGCGGATTTCGGAGTCACCTAGTGCAG”: the binding signal is 4070 fluorescence intensity (a.u.).

For “TCTTACAGCGCGCGTGTTCGTTCGAACGATTCTCTTCTTCCGGAGTCACCTAGTGCAG”, the binding signal is 51900 fluorescence intensity (a.u.).

For the sequence “TTCGTCTCGCAATTTACACGCAAACTGTGTAGTTAGTTTTCGGAGTCACCTAGTGCAG”, the binding signal is 3150 fluorescence intensity (a.u.).

Regarding “CTAACTTTATTGTGCATATGTCAGTTCATAGGGTGAGTGTCGGAGTCACCTAGTGCAG”, the binding signal was 28600 fluorescence intensity (a.u.).

Take “CGTGGCGAGCATCGAGCGGCGGCGCGCGCCGGGCGGGGCGCGGAGTCACCTAGTGCAG”: the binding signal is 3180 fluorescence intensity (a.u.).

As for “ATCTGATCATCCTGGTCTGACGAGCATATCCATCTATCCTCGGAGTCACCTAGTGCAG”, the binding signal is 3600 fluorescence intensity (a.u.).

As for “TCCTCCACCATCCACATATGTTCGTCAACAAGATAAGCATCGGAGTCACCTAGTGCAG”, the binding signal was 3480 fluorescence intensity (a.u.).

As for “ATCCATCGTCTTTACACGTACTTACCTTGCTAACCGCACTCGGAGTCACCTAGTGCAG”, the binding signal is 6330 fluorescence intensity (a.u.).

Regarding “CGTGTGCGTGTTGACTTCCACGTCAGCCTTGCCCTTCATCCGGAGTCACCTAGTGCAG”, the binding signal is 24300 fluorescence intensity (a.u.).

Consider “GGAGATGTGGGGTGCTCATTTTGAGACAATTATGCTGGTCCGGAGTCACCTAGTGCAG”, for which the binding signal is 3440 fluorescence intensity (a.u.).

As for “TGATGTACACAGCCAGATTTTACACGGTGGCCGCCGCGCTCGGAGTCACCTAGTGCAG”, the binding signal was 3360 fluorescence intensity (a.u.).

For “ATTGTCAACTCCTCTTGTTGATGACCATGTCAGAATTTCCCGGAGTCACCTAGTGCAG”, the binding signal is 5340 fluorescence intensity (a.u.).

Turning to “CCTAAATTCGGCCTAATTCCAAGTAAAGTGGGCCGTTTCGCGGAGTCACCTAGTGCAG”, the binding signal was 14300 fluorescence intensity (a.u.).

“GTTGAATTCTGTGCGTGTAAGCAGACCTGCATTGCCGTCGCGGAGTCACCTAGTGCAG”: the binding signal is 3170 fluorescence intensity (a.u.).

For “TGTTTTCTTGGCGTGTTGCAGAGGACAAGTTCGCGTGGCTCGGAGTCACCTAGTGCAG”, the binding signal is 3480 fluorescence intensity (a.u.).

As to “AATCGGCTGCCCTGCCCGCGTAAGCAAATGAAGATCATTTCGGAGTCACCTAGTGCAG”, the binding signal is 3500 fluorescence intensity (a.u.).

Regarding “TTGCTTTTGCGGATGACTTGGACAAGTTGGACGCCATACTCGGAGTCACCTAGTGCAG”, the binding signal is 5370 fluorescence intensity (a.u.).

Take “CGGGGAGGGGAGCGGAGTACGGAGCTAACCTGCGACTCTGCGGAGTCACCTAGTGCAG”: the binding signal is 3310 fluorescence intensity (a.u.).

As to “GGGAAAGGGTCTCTGCCTCAGTGTCTCACAGACAGGTGGGCGGAGTCACCTAGTGCAG”, the binding signal is 3420 fluorescence intensity (a.u.).

Regarding “CCCGCCGCGGCTTCCTCTACGGGTTCGTCTTCAACCGCCACGGAGTCACCTAGTGCAG”, the binding signal is 3680 fluorescence intensity (a.u.).

(Values after PMC7819943, “Rice protein-binding microarrays: a tool to detect cis-acting elements near promoter regions in rice”.)
